Results as given in paper PMC4734665.

Sequences of proteins named here, by UniProt entry; tags and fusion partners are left off. A change or cut given only in a name is not applied to a line headed by its entry.
UniProt Q9C519: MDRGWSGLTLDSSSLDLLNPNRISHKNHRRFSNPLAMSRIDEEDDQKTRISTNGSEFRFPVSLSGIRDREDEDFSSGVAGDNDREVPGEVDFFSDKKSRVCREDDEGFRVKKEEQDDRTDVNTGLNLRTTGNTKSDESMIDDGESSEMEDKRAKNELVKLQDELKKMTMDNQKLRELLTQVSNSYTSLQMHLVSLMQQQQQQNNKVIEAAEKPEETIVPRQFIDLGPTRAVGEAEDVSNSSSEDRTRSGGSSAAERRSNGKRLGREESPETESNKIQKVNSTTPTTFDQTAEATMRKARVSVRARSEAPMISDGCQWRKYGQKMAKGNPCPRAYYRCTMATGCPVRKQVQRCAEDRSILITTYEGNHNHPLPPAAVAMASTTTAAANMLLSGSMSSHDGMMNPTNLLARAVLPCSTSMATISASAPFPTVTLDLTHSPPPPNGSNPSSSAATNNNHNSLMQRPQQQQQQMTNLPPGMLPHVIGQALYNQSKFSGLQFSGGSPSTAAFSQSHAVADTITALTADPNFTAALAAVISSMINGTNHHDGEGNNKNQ

Molecular target: WRKY6-His (UniProt Q9C519)
Assay: EMSA
Conditions: EMSA: 20 uL, 0.5 ug protein, 1 uL of 50 ug/mL biotin probe, 2 uL 10x buffer (1x = 10 mM Tris, 50 mM KCl, 1 mM DTT, pH 7.5), 1 uL 1% NP-40, 0.5 uL 1 mg/mL poly(dI-dC); recombinant protein; protein details: His (pET30a); label: biotin; probe letters rebuilt from the primers and the genome

ATATTTGTAAGAATGCGTGTTTGAGGGGAGTAATTATAGTATATGTGCAGGTGCATGGGAAGTAAGATGGGTGTGTATGGGTCAACTCAAAGAACACAAAGGAAGCTTCGTGGAAACATAATGAAATATACGGCATTTAATTTAGGTTACTATATTAGGGTCTATTTCATGAACTGTTGATGTAACTTATAGAAGAAAACACACGAAGCAATAATAATCCTTATAATAAGTTAGTATTTTATTTATGTAAGAAAAAGAGAAAAGAGAGTATAGGAACAAATATAGAAATGAATATGTTGTGGGC (double strand) [RAV1 promoter P1]
binding result: no binding

Construct, isoform or probe ends are uncertain for at least one entry. Negatives hold for the conditions tested.
